PubChem BioAssay AID652243, Drosophila RNAi Screening Center | 2013

- Aim: 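Fly genes required for human androgen receptor driven transcription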 (primary screen)
- Cell system: Drosophila S2R+ cells
- Knock-down reagent: long dsRNA against Drosophila genes
- Duration: 72 h (48 h, then 24 h hormone)
- Conditions: synthetic androgen R1881 at 10 nM for 24 h
- Measurement: 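Per-well raw luminescence of the androgen-driven firefly reporter and of the Renilla control, two replicates each, without normalisation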
- Scale: firefly reporter light: higher = more light from androgen-responsive reporter; Renilla control light: higher = more constitutive control signal (cell number, transfection)
- Rule for the call: 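Across duplicate plates, a knock-down whose log firefly/Renilla ratio shifted a set fold down or up from the GFP/LacZ control mean was a hit; the downward cut appears as both 1.5 and 3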
- Calls: active = hit: reporter lowered or raised; inactive = no hit
The screen tested about 24,000 reagents; below is an unselected part of those that have a named target and a result. Of all reagents, 246 (1%) were called active. 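Plates not normalised; calls are printed but the firefly/Renilla ratio behind them is not deposited; fold cut for lowering reported inconsistently.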 The raw values are shown without normalisation. The numbers tell different reagents against one gene apart. A plus sign joins genes that one reagent is predicted to hit. No sequences are given here. Not given: the amount of reagent.

| gene | dsRNA no. | firefly reporter light, replicate 1 | firefly reporter light, replicate 2 | Renilla control light, replicate 1 | Renilla control light, replicate 2 | Call |
| --- | --- | --- | --- | --- | --- | --- |
| CG11854 (GeneID 43037) | 1 | 2.51e5 | 2.54e5 | 2.37e6 | 1.97e6 | inactive |
| CG8399 (GeneID 36768) | 1 | 1.22e6 | 1.24e6 | 2.52e6 | 2.18e6 | inactive |
| lncRNA:CR30121 (GeneID 12798336) | 1 | 1.08e6 | 9.00e5 | 1.65e6 | 1.03e6 | inactive |
| lncRNA:CR30121 (GeneID 12798336) | 2 | 2.84e5 | 2.56e5 | 6.57e5 | 6.64e5 | inactive |
| CG14191 (GeneID 32893) | 1 | 5.39e5 | 3.79e5 | 7.49e5 | 3.90e5 | inactive |
| CG14191 (GeneID 32893) | 2 | 1.12e6 | 1.12e6 | 1.10e6 | 8.51e5 | inactive |
| Uhg1 (GeneID 3772106) | 1 | 2.88e5 | 3.54e5 | 7.72e5 | 4.75e5 | inactive |
| snRNA:U1:95Cc + snRNA:U1:95Cb | 1 | 82362 | 76909 | 1.26e5 | 1.84e5 | inactive |
| CG3184 (GeneID 31608) | 1 | 57863 | 62881 | 7.89e5 | 3.77e5 | inactive |
| CG14797 (GeneID 31123) | 1 | 2.30e5 | 2.47e5 | 4.34e6 | 3.37e6 | inactive |
| MED1 (GeneID 40403) | 1 | 32740 | 27663 | 4.30e5 | 2.73e5 | inactive |
| CG9664 (GeneID 33540) | 1 | 6.75e5 | 6.86e5 | 2.28e6 | 2.08e6 | inactive |
| Taf12L (GeneID 33672) | 1 | 1.44e5 | 85003 | 1.03e6 | 9.55e5 | inactive |
| CG15563 (GeneID 43695) | 1 | 1.75e5 | 1.75e5 | 2.36e6 | 2.78e6 | inactive |
| CG15563 (GeneID 43695) | 2 | 6.50e5 | 5.50e5 | 1.06e6 | 1.19e6 | inactive |
| CG14341 (GeneID 33301) | 1 | 88565 | 1.05e5 | 6.00e5 | 8.38e5 | inactive |
| CG12662 (GeneID 31825) | 1 | 3.59e5 | 4.35e5 | 3.50e6 | 3.05e6 | inactive |
| Zip48C (GeneID 36273) | 1 | 1.28e6 | 1.62e6 | 1.11e6 | 1.64e6 | inactive |
| CG11291 (GeneID 37541) | 1 | 1.55e5 | 1.87e5 | 1.32e6 | 1.33e6 | inactive |
| Lip3 (GeneID 41643) | 1 | 5.36e5 | 8.82e5 | 1.31e6 | 1.80e6 | inactive |
| Lip3 (GeneID 41643) | 2 | 5.07e5 | 5.13e5 | 1.39e6 | 1.39e6 | inactive |
| Tango11 (GeneID 246596) | 1 | 72856 | 1.18e5 | 2.69e5 | 3.43e5 | inactive |
| Tango11 (GeneID 246596) | 2 | 1.62e5 | 1.42e5 | 4.03e5 | 2.26e5 | inactive |
| CG11400 (GeneID 36935) | 1 | 72325 | 79543 | 9.67e5 | 9.67e5 | inactive |
| CG7606 (GeneID 8673956) | 1 | 2.32e5 | 2.47e5 | 2.28e6 | 2.54e6 | inactive |
| CG15202 (GeneID 32052) | 1 | 5.52e5 | 5.57e5 | 4.01e6 | 3.35e6 | inactive |
| CG31038 (GeneID 43535) | 1 | 72656 | 82625 | 7.82e5 | 7.05e5 | inactive |
| CG31038 (GeneID 43535) | 2 | 1.29e5 | 1.13e5 | 2.18e6 | 2.91e6 | inactive |
| CG31038 (GeneID 43535) | 3 | 1.65e5 | 1.60e5 | 2.33e6 | 2.47e6 | inactive |
| CG31038 (GeneID 43535) | 4 | 5.35e5 | 8.01e5 | 6.75e5 | 8.19e5 | inactive |
| Mvl (GeneID 42490) | 1 | 1.10e5 | 71578 | 9.86e5 | 5.79e5 | inactive |
| PMCA (GeneID 43787) | 1 | 7.64e5 | 5.45e5 | 1.02e6 | 3.07e5 | inactive |
| PMCA (GeneID 43787) | 2 | 76077 | 90756 | 6.19e5 | 4.07e5 | inactive |
| PMCA (GeneID 43787) | 3 | 4.01e5 | 3.98e5 | 2.07e6 | 1.78e6 | active |
| CG12498 (GeneID 31272) | 1 | 2.31e5 | 3.15e5 | 3.99e6 | 3.56e6 | inactive |
| Glo1 (GeneID 35656) | 1 | 3.63e5 | 4.16e5 | 1.83e6 | 1.71e6 | inactive |
| CG15286 (GeneID 34834) | 1 | 7.90e5 | 8.28e5 | 9.26e5 | 8.95e5 | inactive |
| CG14280 (GeneID 42312) | 1 | 2.38e5 | 2.95e5 | 3.18e6 | 3.33e6 | inactive |
| CG12375 (GeneID 34106) | 1 | 4.61e5 | 6.00e5 | 1.34e6 | 1.38e6 | inactive |
| CG12375 (GeneID 34106) | 2 | 3.29e5 | 2.33e5 | 5.80e5 | 4.60e5 | inactive |
| hubl (GeneID 246567) | 1 | 3.38e5 | 3.77e5 | 2.45e6 | 1.83e6 | inactive |
| CG4956 (GeneID 43114) | 1 | 2.64e5 | 3.11e5 | 3.11e6 | 2.88e6 | inactive |
| CG4956 (GeneID 43114) | 2 | 1.07e6 | 1.06e6 | 9.86e5 | 1.07e6 | inactive |
| CaMKII (GeneID 43828) | 1 | 1.08e5 | 97516 | 7.91e5 | 5.20e5 | inactive |
| CaMKII (GeneID 43828) | 2 | – | – | – | – | inactive |
| CaMKII (GeneID 43828) | 3 | – | – | – | – | inactive |
| mRpS22 (GeneID 43345) | 1 | 51805 | 56406 | 5.98e5 | 6.55e5 | inactive |
| mRpS22 (GeneID 43345) | 2 | 5.61e5 | 9.40e5 | 1.28e6 | 1.23e6 | inactive |
| CG15459 (GeneID 33036) | 1 | 2.26e5 | 2.98e5 | 2.21e6 | 1.82e6 | inactive |
| CG15459 (GeneID 33036) | 2 | 6.63e5 | 7.20e5 | 7.78e5 | 7.61e5 | inactive |
| CG15459 (GeneID 33036) | 3 | 5.75e5 | 3.48e5 | 2.65e6 | 1.19e6 | inactive |
| CG34198 (GeneID 5740481) | 1 | 7.64e5 | 6.79e5 | 1.38e6 | 1.44e6 | inactive |
| CG13800 (retired record) (GeneID 38305) | 1 | 53484 | 64087 | 6.23e5 | 7.54e5 | inactive |
| CG13800 (retired record) (GeneID 38305) | 2 | 2.98e5 | 1.81e5 | 1.02e6 | 7.17e5 | inactive |
| alpha-Est7 (GeneID 40901) | 1 | 5.13e5 | 4.71e5 | 2.72e6 | 3.61e6 | inactive |
| alpha-Est7 (GeneID 40901) | 2 | 1.76e5 | 2.49e5 | 5.63e5 | 9.66e5 | inactive |
| cv-2 (GeneID 45280) | 1 | 2.49e5 | 2.72e5 | 3.68e5 | 4.66e5 | inactive |
| cv-2 (GeneID 45280) | 2 | 1.18e5 | 1.21e5 | 1.61e6 | 9.74e5 | inactive |

4 entries from above, reformatted:
{"gene": "CaMKII (GeneID 43828)", "dsRNA no.": 2, "Call": "inactive"}
{"gene": "CaMKII (GeneID 43828)", "dsRNA no.": 3, "Call": "inactive"}
{"gene": "mRpS22 (GeneID 43345)", "dsRNA no.": 1, "firefly reporter light, replicate 1": 51805, "firefly reporter light, replicate 2": 56406, "Renilla control light, replicate 1": 5.98e5, "Renilla control light, replicate 2": 6.55e5, "Call": "inactive"}
{"gene": "mRpS22 (GeneID 43345)", "dsRNA no.": 2, "firefly reporter light, replicate 1": 5.61e5, "firefly reporter light, replicate 2": 9.40e5, "Renilla control light, replicate 1": 1.28e6, "Renilla control light, replicate 2": 1.23e6, "Call": "inactive"}
